Results are given in words; binding and its absence hold for the method and conditions named. In cells and extracts the contact can be indirect. Some results given as binding are weak or reduced against the parent protein; the word gives no strength.
Key:
[1] = target: Beclin-1 (human (endogenous in AGS and SNU-638)) (UniProt Q14457); experiment: co-IP; lysates of AGS and SNU-638 cells treated with APG (50 μM) for the indicated times; IP with anti-Bcl-2 or anti-Beclin-1 at 4 °C for 16 h, protein A/G Plus agarose; IP buffer pH 7.5, 50 mM Tris-HCl, 250 mM NaCl, 5 mM EDTA, 0.5% NP-40; Western blot
[2] = target: Bcl-2 (human (endogenous in AGS and SNU-638)) (UniProt P10415); experiment: as above

Sequences of proteins named here, by UniProt entry; tags and fusion partners are left off.
UniProt Q14457: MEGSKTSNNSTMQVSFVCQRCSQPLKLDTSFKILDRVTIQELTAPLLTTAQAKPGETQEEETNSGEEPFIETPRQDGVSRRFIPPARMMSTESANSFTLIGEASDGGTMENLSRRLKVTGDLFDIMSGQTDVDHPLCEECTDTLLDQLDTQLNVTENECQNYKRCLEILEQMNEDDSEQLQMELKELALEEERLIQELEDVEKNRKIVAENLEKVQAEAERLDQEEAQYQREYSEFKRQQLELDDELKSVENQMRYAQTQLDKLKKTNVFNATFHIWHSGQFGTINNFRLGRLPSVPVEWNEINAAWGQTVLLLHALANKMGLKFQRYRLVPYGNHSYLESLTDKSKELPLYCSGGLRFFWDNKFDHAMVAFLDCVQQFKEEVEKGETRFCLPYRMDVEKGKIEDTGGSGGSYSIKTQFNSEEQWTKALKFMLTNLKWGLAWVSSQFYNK
UniProt P10415: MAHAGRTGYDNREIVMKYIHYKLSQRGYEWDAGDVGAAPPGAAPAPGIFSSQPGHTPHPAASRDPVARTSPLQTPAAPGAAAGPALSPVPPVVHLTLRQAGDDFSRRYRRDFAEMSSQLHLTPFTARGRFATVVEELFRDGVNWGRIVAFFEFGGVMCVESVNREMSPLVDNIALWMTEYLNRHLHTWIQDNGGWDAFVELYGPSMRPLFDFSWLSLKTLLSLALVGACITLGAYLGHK

Row | Substance | binding [1] | binding [2]
1 | Bcl-2 (from UniProt P10415 1-239) | binds | 
2 | Beclin-1 (from UniProt Q14457 1-450) |  | binds

Reference: PMC8706813
